# The supplement of paper PMC8728848
# The list shows a part of the results.
# B1: AntigenI/IIA3VP1 (Streptococcus mutans), C9E3B4 (protein)
# chain: AANEADYQAKLTAYQTELARVQKANADAKAAYEAAVAANNAANAALTAENTAIKKRNADAKADYEAKLAKYQADLAKYQKDLADYPVKLKAYEDEQASIKAALAELEKHKNEDGNLTEPSAQNLVYDLEPNANLSLTTDGKFLKASAVDDAFSKSTSKAKYDQKILQLDDLDITNLEQSNDVASSMELYGNFGDKAGWSTTVSNNSQVKWGSVLLERGQSATATYTNLQNSYYNGKKISKIVYKYTVDPKSKFQGQKVWLGIFTDPTLGVFASAYTGQVEKNTSIFIKNEFTFYDEDGKPINFDNALLSVASLNREHNSIEMAKDYSGKFVKISGSSIGEKNGMIYATDTLNFKQGEGGSRWTMYKNSQAGSGWDSSDAPNSWYGAGAIKMSGPNNYVTVGATSATNVMPVSDMPVVPGKDNTDGKKPNIWYSLNGKIRAVNVPKVTKEKPTPPVKPTAPTKPTYETEKPLKPAPVAPNYEKEPTPPTRLEHHHHHH
# How the values were obtained:
# Test in all cases: glycan array binding signal (z-score within array); higher = stronger binding
# Details in all cases: glycan notation: IUPAC condensed, linker removed
# [1] = biological target: Gal(a1-3)Gal(b1-4)GlcNAc(b1-2)Man
# Outline: (§1)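 Glycan array data came from 3228 arrays in the Consortium for Functional Glycomics database, and only arrays with an available protein sequence were kept. Glycan names were put into IUPAC-condensed notation, and columns mapping to the same glycan were averaged. The binding signal is a within-array Z-score, averaged across arrays of one protein sequence run at different concentrations or buffers and across linkers. A negative Z-score can be read as non-binding.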
# [2] = biological target: Gal(a1-3)Gal(b1-4)GlcNAc(b1-2)Man(a1-3)[Gal(a1-3)Gal(b1-4)GlcNAc(b1-2)Man(a1-6)]Man(b1-4)GlcNAc(b1-4)GlcNAc
# Outline: as §1
# [3] = biological target: Gal(a1-3)Gal(b1-4)GlcNAc(b1-3)GalNAc
# Outline: as §1
# [4] = biological target: Gal(a1-3)Gal(b1-4)GlcNAc(b1-6)GalNAc
# Outline: as §1
# [5] = biological target: Gal(a1-3)Gal(b1-4)[Fuc(a1-3)]GlcNAc
# Outline: as §1
# [6] = biological target: Gal(a1-3)Gal(b1-4)[Fuc(a1-3)]GlcNAc(b1-2)Man(a1-3)[Gal(a1-3)Gal(b1-4)[Fuc(a1-3)]GlcNAc(b1-2)Man(a1-6)]Man(b1-4)GlcNAc(b1-4)GlcNAc
# Outline: as §1
# Gal(a1-3)GalNAc = biological target: Gal(a1-3)GalNAc
# Outline: as §1
# [7] = biological target: Gal(a1-3)[Gal(a1-4)]Gal(b1-4)GlcNAc
# Outline: as §1
# [8] = biological target: Gal(a1-4)Gal(b1-3)GlcNAc(b1-2)Man(a1-3)[Gal(a1-4)Gal(b1-3)GlcNAc(b1-2)Man(a1-6)]Man(b1-4)GlcNAc(b1-4)GlcNAc
# Outline: as §1
# Gal(a1-4)Gal(b1-4)Glc = biological target: Gal(a1-4)Gal(b1-4)Glc
# Outline: as §1
# Gal(a1-4)Gal(b1-4)GlcNAc = biological target: Gal(a1-4)Gal(b1-4)GlcNAc
# Outline: as §1
# [9] = biological target: Gal(a1-4)Gal(b1-4)GlcNAc(b1-2)Man(a1-3)[Gal(a1-4)Gal(b1-4)GlcNAc(b1-2)Man(a1-6)]Man(b1-4)GlcNAc(b1-4)GlcNAc
# Outline: as §1
# [10] = biological target: Gal(a1-4)Gal(b1-4)GlcNAc(b1-3)Gal(b1-4)Glc
# Outline: as §1
# Gal(a1-4)GlcNAc = biological target: Gal(a1-4)GlcNAc
# Outline: as §1
# Gal(a1-6)Glc = biological target: Gal(a1-6)Glc
# Outline: as §1
# Gal(b1-2)Gal = biological target: Gal(b1-2)Gal
# Outline: as §1
# Gal(b1-3)Gal = biological target: Gal(b1-3)Gal
# Outline: as §1
# Gal(b1-3)Gal(b1-4)GlcNAc = biological target: Gal(b1-3)Gal(b1-4)GlcNAc
# Outline: as §1
# Gal(b1-3)GalNAc = biological target: Gal(b1-3)GalNAc
# Outline: as §1
# [11] = biological target: Gal(b1-3)GalNAc(a1-3)[Fuc(a1-2)]Gal(b1-4)Glc
# Outline: as §1
# [12] = biological target: Gal(b1-3)GalNAc(a1-3)[Fuc(a1-2)]Gal(b1-4)GlcNAc
# Outline: as §1
# Gal(b1-3)GalNAc(b1-3)Gal = biological target: Gal(b1-3)GalNAc(b1-3)Gal
# Outline: as §1
# [13] = biological target: Gal(b1-3)GalNAc(b1-3)Gal(a1-4)Gal(b1-4)Glc
# Outline: as §1
# [14] = biological target: Gal(b1-3)GalNAc(b1-4)Gal(b1-4)Glc
# Outline: as §1
# [15] = biological target: Gal(b1-3)GalNAc(b1-4)[Neu5Ac(a2-3)]Gal(b1-4)Glc
# Outline: as §1
# Gal(b1-3)GlcNAc = biological target: Gal(b1-3)GlcNAc
# Outline: as §1
# [16] = biological target: Gal(b1-3)GlcNAc(a1-3)Gal(b1-4)GlcNAc
# Outline: as §1
# [17] = biological target: Gal(b1-3)GlcNAc(a1-6)Gal(b1-4)GlcNAc
# Outline: as §1
# Gal(b1-3)GlcNAc(b1-2)Man = biological target: Gal(b1-3)GlcNAc(b1-2)Man
# Outline: as §1
# [18] = biological target: Gal(b1-3)GlcNAc(b1-2)Man(a1-3)[Gal(b1-3)GlcNAc(b1-2)Man(a1-6)]Man(b1-4)GlcNAc(b1-4)GlcNAc
# Outline: as §1
# [19] = biological target: Gal(b1-3)GlcNAc(b1-2)Man(a1-3)[Gal(b1-3)GlcNAc(b1-2)Man(a1-6)]Man(b1-4)GlcNAc(b1-4)[Fuc(a1-6)]GlcNAc
# Outline: as §1
# [20] = biological target: Gal(b1-3)GlcNAc(b1-2)Man(a1-3)[GlcNAc(b1-4)][Gal(b1-3)GlcNAc(b1-2)Man(a1-6)]Man(b1-4)GlcNAc(b1-4)GlcNAc
# Outline: as §1
# [21] = biological target: Gal(b1-3)GlcNAc(b1-2)[Gal(b1-3)GlcNAc(b1-6)]Man(a1-6)[Gal(b1-3)GlcNAc(b1-2)Man(a1-3)]Man(b1-4)GlcNAc(b1-4)GlcNAc
# Outline: as §1
# [22] = biological target: Gal(b1-3)GlcNAc(b1-3)Gal(b1-3)GlcNAc
# Outline: as §1
# [23] = biological target: Gal(b1-3)GlcNAc(b1-3)Gal(b1-4)Glc
# Outline: as §1
# [24] = biological target: Gal(b1-3)GlcNAc(b1-3)Gal(b1-4)GlcNAc
# Outline: as §1
# [25] = biological target: Gal(b1-3)GlcNAc(b1-3)Gal(b1-4)GlcNAc(b1-2)Man(a1-3)[Gal(b1-3)GlcNAc(b1-3)Gal(b1-4)GlcNAc(b1-2)Man(a1-6)]Man(b1-4)GlcNAc(b1-4)GlcNAc
# Outline: as §1
binder,measurement,setting,value
B1,glycan array binding signal (z-score),[1],-0.102
same,glycan array binding signal (z-score),[2],1.55
same,glycan array binding signal (z-score),[3],-1.15
same,glycan array binding signal (z-score),[4],-0.128
same,glycan array binding signal (z-score),[5],-1.04
same,glycan array binding signal (z-score),[6],0.993
same,glycan array binding signal (z-score),Gal(a1-3)GalNAc,1.36
same,glycan array binding signal (z-score),[7],0.241
same,glycan array binding signal (z-score),[8],2.06
same,glycan array binding signal (z-score),Gal(a1-4)Gal(b1-4)Glc,0.901
same,glycan array binding signal (z-score),Gal(a1-4)Gal(b1-4)GlcNAc,-0.269
same,glycan array binding signal (z-score),[9],-0.011
same,glycan array binding signal (z-score),[10],-0.067
same,glycan array binding signal (z-score),Gal(a1-4)GlcNAc,-0.879
same,glycan array binding signal (z-score),Gal(a1-6)Glc,-0.191
same,glycan array binding signal (z-score),Gal(b1-2)Gal,-0.551
same,glycan array binding signal (z-score),Gal(b1-3)Gal,0.084
same,glycan array binding signal (z-score),Gal(b1-3)Gal(b1-4)GlcNAc,-0.051
same,glycan array binding signal (z-score),Gal(b1-3)GalNAc,-0.409
same,glycan array binding signal (z-score),[11],1.01
same,glycan array binding signal (z-score),[12],0.078
same,glycan array binding signal (z-score),Gal(b1-3)GalNAc(b1-3)Gal,-0.621
same,glycan array binding signal (z-score),[13],0.438
same,glycan array binding signal (z-score),[14],-0.798
same,glycan array binding signal (z-score),[15],-0.732
same,glycan array binding signal (z-score),Gal(b1-3)GlcNAc,0.211
same,glycan array binding signal (z-score),[16],-0.674
same,glycan array binding signal (z-score),[17],0.451
same,glycan array binding signal (z-score),Gal(b1-3)GlcNAc(b1-2)Man,-0.152
same,glycan array binding signal (z-score),[18],0.099
same,glycan array binding signal (z-score),[19],0.484
same,glycan array binding signal (z-score),[20],1.13
same,glycan array binding signal (z-score),[21],0.815
same,glycan array binding signal (z-score),[22],1.59
same,glycan array binding signal (z-score),[23],-0.068
same,glycan array binding signal (z-score),[24],0.485
same,glycan array binding signal (z-score),[25],-0.072

# Another view of some results above.
binder | measurement | setting | value
B1 | glycan array binding signal (z-score) | [1] | -0.102
same | glycan array binding signal (z-score) | [2] | 1.55
